Experimental data: PubChem BioAssay AID652272 (Drosophila RNAi Screening Center, 2013)

Assay: 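Finding fly genes that regulate Hedgehog signal transduction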 (primary screen)
Cells: Drosophila clone 8 (Cl8) cells
Reagent: long dsRNA against Drosophila genes
Measurement: 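Plate reader light from a firefly reporter under a ptc promoter fragment that responds to Hedgehog, with Renilla light as transfection reference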
Direction: firefly Hh reporter signal: higher = more ptc reporter light; Renilla reference signal: higher = more Renilla control light
Hit rule: 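Hit when the z-score averaged over two replicates is under -2 or over +3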
Meaning of the calls: active = hit: reporter lowered or raised; inactive = not a hit
The deposit covers about 21,000 reagents; shown is a random part of those with a known target gene and a result. Over the whole deposit, 503 (2.4%) are marked active. 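Raw plate light values, not normalised; calls rest on replicate z-scores that were not deposited; hits include reporter decreases as well as increases.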 Unmarked entries are inactive. Not given: the amount of reagent, the time to read-out.

The opening 2 records as a preview:
| gene | dsRNA | firefly Hh reporter signal, replicate 1 | firefly Hh reporter signal, replicate 2 | firefly Hh reporter signal, replicate 3 | Renilla reference signal, replicate 1 | Renilla reference signal, replicate 2 |
| --- | --- | --- | --- | --- | --- | --- |
| CG42258 | DRSC19741 | 57400 | 1.72e5 | – | 2711 | 7770 |
| CG42258 | DRSC19783 | 64685 | 1.62e5 | – | 2304 | 7191 |

The list itself, from the start:
| gene | dsRNA | firefly Hh reporter signal, replicate 1 | firefly Hh reporter signal, replicate 2 | firefly Hh reporter signal, replicate 3 | Renilla reference signal, replicate 1 | Renilla reference signal, replicate 2 |
| --- | --- | --- | --- | --- | --- | --- |
| CG42258 | DRSC19741 | 57400 | 1.72e5 | – | 2711 | 7770 |
| CG42258 | DRSC19783 | 64685 | 1.62e5 | – | 2304 | 7191 |
| CG4278 | DRSC02741 | 78646 | 64353 | – | 3732 | 2752 |
| VGlut | DRSC00733 | 1.57e5 | 7.15e5 | 1.41e5 | 3138 | 5110 |
| Galphaq | DRSC07432 | 96018 | 45872 | – | 3968 | 2050 |
| sens | DRSC09263 | 31136 | – | – | 1504 | – |
| CG8353 | DRSC03084 | 79171 | 34576 | – | 2355 | 5104 |
| CG6293 | DRSC16011 | 1.42e5 | 87256 | – | 5426 | 3616 |
| Or33a | DRSC03386 | 84652 | 45297 | – | 2101 | 4570 |
| Sprn | DRSC10132 | 51493 | 39393 | 42871 | 4200 | 3136 |
| SdhA | DRSC07547 | 68267 | 40675 | – | 3585 | 1952 |
| GstE4 | DRSC06674 | 97752 | 40756 | – | 2955 | 3201 |
| dbe | DRSC00811 | 78377 | 74716 | – | 4529 | 3738 |
| CG1307 | DRSC12492 | 1.20e5 | 85776 | – | 4393 | 3506 |
| morgue | DRSC00264 | 96212 | 70994 | – | 4260 | 2816 |
| UbcE2M | DRSC10828 | 1.49e5 | 63622 | – | 4849 | 1868 |
| CG5938 | DRSC15923 | 84672 | 58357 | – | 2184 | 1650 |
| alrm | DRSC14436 | 4.95e5 | 61763 | – | 26957 | 1170 |
| Sec23 | DRSC12387 | 1.25e5 | 7.79e5 | 79620 | 4996 | 44822 |
| Smyd3 | DRSC17744 | 64266 | 1.85e5 | – | 1227 | 7667 |
| CG10598 | DRSC19358 | 1.06e5 | 1.83e5 | – | 2080 | 8157 |
| CG15201 | DRSC19648 | 1.17e5 | 2.95e5 | – | 3052 | 11362 |
| CG6432 | DRSC16039 | 97488 | 1.29e5 | – | 4229 | 4930 |
